Consider three compounds from patent US10494377B1, “Bergenin lipoic acid ester with antioxidant activity and a method of preparing the same” (SHAANXI UNIVERSITY OF SCIENCE AND TECHNOLOGY, priority 2018, dated 2019).

This data set can be described thus: DPPH radical scavenging activity assay. It is filed as biochemical. Particulars: 517 nm. An excerpt: The Antioxidant Activity of Bergenin Lipoic Acid Ester Measured by a DPPH Radical Scavenging Activity Assay
2,2-Diphenyl-1-picryl hydrazyl (DPPH) is an organic compound composed of a stable organic radical. In the DPPH molecule, due to the presence of multiple electron-withdrawing —NO2 and large π bonds of the benzene ring, nitrogen free radical is stabilized. Its methanol solution is purple and has a maximum absorption peak at 517 nm. After the addition of an antioxidant, DPPH captures an electron to be paired with the free electron, and the purple fades and turns into a yellow substance. The absorption at 517 nm disappears, and the degree of fading is quantitatively related to the number of electrons it captures. Based on this principle, a spectrophotometer is used to detect the change of the absorbance of the DPPH radical in the sample solution, and the ability of the sample to provide hydrogen atoms and scavenge free radicals can be measured.
Preparation of DPPH solution: measuring exact amount of 2,2-diphenyl-1-picryl hydrazyl (DPPH) and dissolving in methanol to prepare a 0.2 mmol/L DPPH solution, stored at 0° C. in dark.
Preparation of test solutions: Vc (vitamin C, positive control), bergenin lipoic acid ester (sample), bergenin (control), lipoic acid (control), and mixture of bergenin and lipoic acid (reference). The test solutions were serially diluted with acetonitrile, and four groups of controls were separately dissolved in a test tube with a certain amount of methanol to prepare the same concentration gradient as the sample.
Absorbance measurement: Take 2 mL of sample solution (Table 1, number B), add 2 mL of DPPH solution with concentration of 2*10^−4 moL/L, mix and react in the dark at room temperature for 30 min, adjust to zero with methanol, and measure at 517 nm. The absorbance Ai was simultaneously measured for the absorbance Aj of 2 mL of methanol mixed with 2 mL of the sample solution and the absorbance Ao of 2 mL of DPPH solution mixed with 2 mL of acetonitrile (The experimental results are shown in Table 2).
Clearance calculation: clearance rate (%) [1−(Ai−Aj)/Ao]*100%

Molecules are shown by their SMILES.

As for `COc1c(O)cc2c(c1O)C1OC(COC(=O)CCCCC3CCSS3)C(O)C(O)C1OC2=O` (stereo not drawn) [B, Bergenin lipoic acid ester], the “Absorbance Ai (sample solution + DPPH solution)” value (“Absorbance Ai” for short) reads like this: (7.02 ppm) 0.993; (140.4 ppm) 0.621; (702 ppm) 0.461; (2808 ppm) 0.257; (7020 ppm) 0.230; (17550 ppm) 0.223. Further, the “Absorbance Aj (sample solution + methanol)” value (from here on “Absorbance Aj”) (7.02 ppm) is 0.194; the “Absorbance Aj” value (140.4 ppm) is reported as 0.189; the “Absorbance Aj” value (702 ppm) amounted to 0.200; the “Absorbance Aj” value (2808 ppm) stood at 0.201; the “Absorbance Aj” value (7020 ppm) was 0.204; the “Absorbance Aj” value (17550 ppm) was 0.205.

As to `COc1c(O)cc2c(c1O)[C@@H]1O[C@H](CO)[C@@H](O)[C@H](O)[C@H]1OC2=O` [C, Bergenin], the “Absorbance Ai” value was determined as 1.176 (7.02 ppm); 1.128 (140.4 ppm); 0.996 (702 ppm); 0.723 (2808 ppm); 0.313 (7020 ppm); 0.249 (17550 ppm). Moreover, the “Absorbance Aj” value runs as follows: (7.02 ppm) 0.195; (140.4 ppm) 0.196; (702 ppm) 0.194; (2808 ppm) 0.195; (7020 ppm) 0.197; (17550 ppm) 0.209.

Turning to `O=C(O)CCCCC1CCSS1` (stereo not drawn) [D, Lipoic acid], the “Absorbance Ai” value was 1.023 (7.02 ppm); 0.994 (140.4 ppm); 0.826 (702 ppm); 0.622 (2808 ppm); 0.373 (7020 ppm); 0.292 (17550 ppm). Also, the “Absorbance Aj” value came to 0.192 (7.02 ppm); 0.199 (140.4 ppm); 0.196 (702 ppm); 0.210 (2808 ppm); 0.195 (7020 ppm); 0.199 (17550 ppm).
